Where a name gives a salt, the structure may show the parent alone. The list shows a part of the results. The numbers are fractions of the control, whatever unit the source prints. Most values lie at the level of the controls, where differences are scatter.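 MIN6 is a mouse insulinoma beta-cell line that stably carries a lentiviral reporter in which the Pdx1 and Ins1 promoters each drive a nucleus-targeted fluorescent protein; cells were counted by automated imaging with a Hoechst nuclear stain. In the screen, a drug was a possible hit when its Ins1 promoter readout lay beyond two median absolute deviations from the DMSO controls while Pdx1 activity stayed near normal.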
system: MIN6; assay: % Pdx1+ Ins1-low (RFP-only, immature) cells relative to DMSO control (fold of DMSO control); higher = more immature Pdx1+/Ins1-low cells; settings: 8.5 µM; 48 h; glucose 5 mM

Compound	% Pdx1+ Ins1-low
CCC(C)(CN(C)C)OC(=O)c1ccccc1 (stereo not given) [Amyleine hydrochloride]	1.2
CC(=C(CCO)SSCC1CCCO1)N(C=O)Cc1cnc(C)nc1N (stereo in doubt) [Fursultiamine Hydrochloride]	0.634
CNC1(C)C2CCC(C2)C1(C)C (stereo not given) [Mecamylamine hydrochloride]	0.916
CC1=C(C(=O)O)N2C(=O)[C@@H](NC(=O)[C@H](N)c3ccc(O)cc3)[C@H]2SC1 [Cefadroxil]	1.32
CC(C)(Oc1ccc(C2CC2(Cl)Cl)cc1)C(=O)O (stereo not given) [Ciprofibrate]	1.09
CCn1cc(C(=O)O)c(=O)c2cc(F)c(N3CCNCC3)cc21 [Norfloxacin]	0.868
CCOC(=O)C1=C(C)NC(C)=C(C(=O)OC)C1c1cccc([N+](=O)[O-])c1 (stereo not given) [Nitrendipine]	0.687
NS(=O)(=O)c1cc2c(cc1C(F)(F)F)NC(Cc1ccccc1)NS2(=O)=O (stereo not given) [Bendroflumethiazide]	0.318
CC(CN1c2ccccc2Sc2ccccc21)N(C)C (stereo not given) [Promethazine hydrochloride]	0.804
O=C(c1ccc(OCCN2CCCCC2)cc1)c1c(-c2ccc(O)cc2)sc2cc(O)ccc12 [Raloxifene hydrochloride]	0.957
COc1cc(N)c(Cl)cc1C(=O)NC1CCN(Cc2ccccc2)CC1 [Clebopride maleate]	1.09
CCCCOc1ccc(OCCCN2CCOCC2)cc1 [Pramoxine hydrochloride]	0.973
CC1CCc2cc(F)cc3c(=O)c(C(=O)O)cn1c23 (stereo not given) [Flumequine]	1
O=C(NCC1CCCCN1)c1cc(OCC(F)(F)F)ccc1OCC(F)(F)F (stereo not given) [Flecainide acetate]	1.26
COc1c(O)cc2c(c1O)[C@@H]1O[C@H](CO)[C@@H](O)[C@H](O)[C@H]1OC2=O [Bergenin monohydrate]	0.666
Cc1c(OCC(F)(F)F)ccnc1C[S+]([O-])c1nc2ccccc2[nH]1 (stereo not given) [Lansoprazole]	0.633
CC(C)(C)NCC(O)c1ccc(O)c(CO)c1 (stereo not given) [Salbutamol]	0.816
O=C(O)CNC(=O)C(CS)Cc1ccccc1 (stereo not given) [Thiorphan]	0.805
CN(C)CCCC1(c2ccc(F)cc2)OCc2cc(C#N)ccc21 (stereo not given) [Citalopram Hydrobromide]	1.27
COC1=CC(=O)C[C@@H](C)[C@]12Oc1c(Cl)c(OC)cc(OC)c1C2=O [Griseofulvin]	0.917
COc1cc(N)c(Cl)cc1C(=O)NC1CCN(CCCOc2ccc(F)cc2)CC1OC (stereo not given) [Cisapride]	0.983
CN(C)CCC(c1ccc(Cl)cc1)c1ccccn1 (stereo not given) [Chlorpheniramine maleate]	1.4
Cc1c(NC(C)C)c(=O)n(-c2ccccc2)n1C [Isopyrin hydrochloride]	1.23
NCCc1cc[nH]n1 [Betazole hydrochloride]	0.957

Compound	% Pdx1+ Ins1-low
CCCNC(C)C(=O)Nc1c(C)csc1C(=O)OC (stereo not given) [Articaine hydrochloride]	0.857
Cc1cn([C@H]2C[C@H](N=[N+]=[N-])[C@@H](CO)O2)c(=O)[nH]c1=O [Zidovudine, AZT]	0.668
COc1ccc([C@@H]2Sc3ccccc3N(CCN(C)C)C(=O)[C@@H]2OC(C)=O)cc1 [Diltiazem hydrochloride]	0.664
CN(C)CCN(Cc1ccc(Cl)cc1)c1ccccn1 [Chloropyramine hydrochloride]	0.785
COc1ccc2c(c1)C(=O)N(CCc1ccc(S(=O)(=O)NC(=O)NC3CCCCC3)cc1)C(=O)C2(C)C [Gliquidone]	0.847
CC(C[N+](C)(C)C)OC(N)=O (stereo not given) [Bethanechol chloride]	0.662
CNCCC=C1c2ccccc2C=Cc2ccccc21 [Norcyclobenzaprine]	1.05
NC(=O)c1ccc[n+]([C@@H]2O[C@H](COP(=O)([O-])OP(=O)(O)OC[C@H]3O[C@@H](n4cnc5c(N)ncnc54)[C@H](O)[C@@H]3O)[C@@H](O)[C@H]2O)c1 [Nadide]	0.831
O=C(CCCN1CCC(O)(c2ccc(Cl)cc2)CC1)c1ccc(F)cc1 [Haloperidol]	1.23
Cc1ccc(C)c(OCCCC(C)(C)C(=O)O)c1 [Gemfibrozil]	0.773
COCCOC(=O)C1=C(C)NC(C)=C(C(=O)OC(C)C)C1c1cccc([N+](=O)[O-])c1 (stereo not given) [Nimodipine]	1.26
CN1C(C(=O)Nc2ccccn2)=C(O)c2ccccc2S1(=O)=O [Piroxicam]	1.05
NC(=O)OCC(O)COc1ccc(Cl)cc1 (stereo not given) [Chlorphensin carbamate]	0.95
CC1(C)S[C@@H]2[C@H](NC(=O)[C@H](N)c3ccccc3)C(=O)N2[C@H]1C(=O)OC1OC(=O)c2ccccc21 (stereo not given in full) [Talampicillin hydrochloride]	0.924
O=c1[nH]c(=O)n([C@H]2C[C@H](O)[C@@H](CO)O2)cc1C(F)(F)F [Trifluridine]	0.707
Cc1nnc(SCC2=C(C(=O)O)N3C(=O)[C@@H](NC(=O)Cn4cnnn4)[C@H]3SC2)s1 [Cefazolin sodium salt]	0.866
COc1ccc2c3c1O[C@H]1C[C@@H](O)C=C[C@@]31CCN(C)C2 [Galanthamine hydrobromide]	1.42
CC(C)NC(=N)NC(=N)Nc1ccc(Cl)cc1 [Proguanil hydrochloride]	1.01
CC(=O)CC(c1ccc([N+](=O)[O-])cc1)c1c(O)c2ccccc2oc1=O (stereo not given) [Acenocoumarol]	1.09
CCCCCCCCNC(C)C(O)c1ccc(SC(C)C)cc1 (stereo not given) [Suloctidil]	0.576
Cc1cccc(Nc2ccncc2S(=O)(=O)NC(=O)NC(C)C)c1 [Torsemide]	0.657
NCCC(=O)NCCc1c[nH]cn1 [Carcinine]	0.771
COc1cc2ccc(=O)oc2cc1O [Scopoletin]	0.535
CC[N+](CC)(CC(=O)Nc1c(C)cccc1C)Cc1ccccc1 [Denatonium benzoate]	0.686

Structures shown so far that have an NH in an aromatic ring (five):
Compound	% Pdx1+ Ins1-low
Cc1c(OCC(F)(F)F)ccnc1C[S+]([O-])c1nc2ccccc2[nH]1 (stereo not given) [Lansoprazole]	0.633
NCCc1cc[nH]n1 [Betazole hydrochloride]	0.957
Cc1cn([C@H]2C[C@H](N=[N+]=[N-])[C@@H](CO)O2)c(=O)[nH]c1=O [Zidovudine, AZT]	0.668
O=c1[nH]c(=O)n([C@H]2C[C@H](O)[C@@H](CO)O2)cc1C(F)(F)F [Trifluridine]	0.707
NCCC(=O)NCCc1c[nH]cn1 [Carcinine]	0.771

More results:

Compound	% Pdx1+ Ins1-low
C=N[C@@H](C(=O)N[C@@H]1C(=O)N2[C@@H]1SC(C)(C)[C@@H]2C(=O)O)c1ccccc1 [Metampicillin sodium salt]	1.26
COc1cc(NS(=O)(=O)c2ccc(N)cc2)nc(OC)n1 [Sulfadimethoxine]	1.51
CC1=C(C(=O)O)N2C(=O)[C@@H](NC(=O)[C@H](N)c3ccccc3)[C@H]2SC1 [Cephalexin monohydrate]	0.837
CC(C)(C)NCC(O)COc1cccc2c1CC(O)C(O)C2 (stereo not given) [Nadolol]	1.52
COc1ccc2cc3[n+](cc2c1OC)CCc1cc2c(cc1-3)OCO2 [Berberine chloride]	1.46
COc1ccc2c(c1)c(CC(=O)OCC(=O)O)c(C)n2C(=O)c1ccc(Cl)cc1 [Acemetacin]	0.946
O=C1C(O)=C(O)C(=O)C(O)=C1O [Tetrahydroxy-1,4-quinone monohydrate]	0.753
NC(=O)c1cc[n+](CC2=C(C(=O)[O-])N3C(=O)[C@@H](NC(=O)Cc4cccs4)[C@H]3SC2)cc1 [Cefalonium]	0.765
Cc1nccn1CC1CCc2c(c3ccccc3n2C)C1=O (stereo not given) [Ondansetron Hydrochloride]	0.678
CC(=O)O[C@]1(C(C)=O)CC[C@H]2[C@@H]3C=C(C)C4=CC(=O)CC[C@]4(C)[C@H]3CC[C@@]21C [Megestrol acetate]	0.485
Cc1cccc(C)c1NC(=O)CN1CCN(CCCC(c2ccc(F)cc2)c2ccc(F)cc2)CC1 [Lidoflazine]	1.45
Nc1nc(=O)[nH]cc1F [Flucytosine]	0.78
N=C(N=C(N)N)N1CCOCC1 [Moroxidine hydrochloride]	0.686
C[C@@H]1O[C@@H](O[C@H]2[C@H](Oc3cc(O)c4c(c3)O[C@H](c3ccc(O)cc3)CC4=O)O[C@H](CO)[C@@H](O)[C@@H]2O)[C@H](O)[C@H](O)[C@H]1O [Naringin hydrate]	0.545
O=C(Nc1ccccc1)OCC(CN1CCCCC1)OC(=O)Nc1ccccc1 (stereo not given) [Diperodon hydrochloride]	0.762
CC(=O)Nc1ccc(OCC(O)CNC(C)C)cc1 (stereo not given) [Practolol]	1.05
CCCC(=O)Nc1ccc(OCC(O)CNC(C)C)c(C(C)=O)c1 (stereo not given) [Acebutolol hydrochloride]	0.729
N=C(N)N1CCc2ccccc2C1 [Debrisoquin sulfate]	0.907
CC(=O)/N=c1/sc(S(N)(=O)=O)nn1C [Methazolamide]	0.689
CCCCOC(=O)c1ccc(O)cc1 [Butylparaben]	0.677
O=C(CCCCC(=O)Nc1c(I)cc(I)c(C(=O)O)c1I)Nc1c(I)cc(I)c(C(=O)O)c1I [Iodipamide]	1.05
O=C(O)Cc1cc(I)c(Oc2ccc(O)c(I)c2)c(I)c1 [Tiratricol, 3,3',5-triiodothyroacetic acid]	1.25
